Results as given in patent US20050095604A1 (published 2005).
These are yes or no findings as the source states them, for the method shown. Some binding calls cover weakened binding; strength is not graded here.

Protein sequences, listed by entry. Tags and fused reporters are not part of them. Lines headed by an entry give the natural chain unless they say otherwise; changes in a name come on top. Residues count along the entry.
UniProt Q92542, residues 34-709: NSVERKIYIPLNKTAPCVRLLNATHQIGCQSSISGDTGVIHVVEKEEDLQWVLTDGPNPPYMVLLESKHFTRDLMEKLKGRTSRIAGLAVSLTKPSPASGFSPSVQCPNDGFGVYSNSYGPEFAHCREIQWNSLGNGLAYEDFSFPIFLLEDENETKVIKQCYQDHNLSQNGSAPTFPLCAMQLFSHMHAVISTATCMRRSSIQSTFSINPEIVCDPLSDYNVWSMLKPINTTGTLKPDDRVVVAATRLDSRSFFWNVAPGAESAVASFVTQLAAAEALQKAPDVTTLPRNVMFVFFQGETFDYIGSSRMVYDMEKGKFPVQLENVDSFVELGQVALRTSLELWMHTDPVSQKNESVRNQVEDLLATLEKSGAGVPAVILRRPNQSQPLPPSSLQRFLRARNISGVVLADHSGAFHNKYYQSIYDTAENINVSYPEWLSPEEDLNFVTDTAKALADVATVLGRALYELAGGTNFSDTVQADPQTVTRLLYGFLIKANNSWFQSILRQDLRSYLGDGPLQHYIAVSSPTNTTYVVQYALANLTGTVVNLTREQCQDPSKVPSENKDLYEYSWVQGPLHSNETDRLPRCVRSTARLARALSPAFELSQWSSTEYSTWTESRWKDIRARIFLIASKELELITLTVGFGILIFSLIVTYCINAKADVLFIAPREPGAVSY
UniProt Q96BI3: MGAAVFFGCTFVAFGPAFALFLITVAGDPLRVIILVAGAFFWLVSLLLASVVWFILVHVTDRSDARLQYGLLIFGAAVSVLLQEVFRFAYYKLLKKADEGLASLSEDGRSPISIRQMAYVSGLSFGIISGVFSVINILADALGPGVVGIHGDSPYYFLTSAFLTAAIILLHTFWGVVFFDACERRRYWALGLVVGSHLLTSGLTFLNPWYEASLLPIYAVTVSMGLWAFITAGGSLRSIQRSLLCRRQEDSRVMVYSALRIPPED

Key:
[1] = molecular target: endogenous nicastrin of human HEK293 cells (human) (UniProt Q92542); assay: Talon cobalt-affinity isolation of V5/6xHis-tagged hPSF from 1% CHAPSO lysates of stable HEK293 cells, Western blot for nicastrin
[2] = molecular target: endogenous nicastrin of human HEK293 cells (human) (UniProt Q92542); assay: Talon metal-affinity isolation of hPSF (V5 tag and 6xHis) from HEK293 lysates, Western blot

Substance: human presenilin stabilization factor (PSF) with C-terminal V5 and poly-histidine (6xHis) tags (from UniProt Q96BI3 1-242)
- binding [1]: binds
- binding [2]: binds
